From paper PMC10325910
These are yes or no findings as the source states them, for the method shown. In cells and extracts the contact can be indirect. Some entries that bind do so weakly or less than the wild type.

Amino acid sequences for entries named in this document (tags omitted).
UniProt P12004: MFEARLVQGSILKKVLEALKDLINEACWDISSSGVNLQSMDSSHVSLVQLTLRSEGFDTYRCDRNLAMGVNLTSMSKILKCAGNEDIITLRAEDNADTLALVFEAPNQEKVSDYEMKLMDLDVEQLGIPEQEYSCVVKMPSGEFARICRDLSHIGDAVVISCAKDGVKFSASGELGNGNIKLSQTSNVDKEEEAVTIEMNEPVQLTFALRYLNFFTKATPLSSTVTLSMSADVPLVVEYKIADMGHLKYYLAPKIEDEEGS
UniProt O00401: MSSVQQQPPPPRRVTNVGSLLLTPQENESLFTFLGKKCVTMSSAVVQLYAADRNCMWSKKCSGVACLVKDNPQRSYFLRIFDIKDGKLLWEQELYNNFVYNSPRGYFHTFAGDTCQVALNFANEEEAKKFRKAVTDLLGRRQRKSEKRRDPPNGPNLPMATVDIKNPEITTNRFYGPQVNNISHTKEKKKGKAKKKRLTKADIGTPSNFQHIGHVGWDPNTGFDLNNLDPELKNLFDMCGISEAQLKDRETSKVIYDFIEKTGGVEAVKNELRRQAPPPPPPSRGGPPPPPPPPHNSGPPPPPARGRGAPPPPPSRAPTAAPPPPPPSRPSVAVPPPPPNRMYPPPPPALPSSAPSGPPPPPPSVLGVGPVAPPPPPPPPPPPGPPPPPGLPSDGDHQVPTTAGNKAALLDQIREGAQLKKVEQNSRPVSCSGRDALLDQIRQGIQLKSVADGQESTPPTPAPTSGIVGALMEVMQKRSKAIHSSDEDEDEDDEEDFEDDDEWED
UniProt P42768: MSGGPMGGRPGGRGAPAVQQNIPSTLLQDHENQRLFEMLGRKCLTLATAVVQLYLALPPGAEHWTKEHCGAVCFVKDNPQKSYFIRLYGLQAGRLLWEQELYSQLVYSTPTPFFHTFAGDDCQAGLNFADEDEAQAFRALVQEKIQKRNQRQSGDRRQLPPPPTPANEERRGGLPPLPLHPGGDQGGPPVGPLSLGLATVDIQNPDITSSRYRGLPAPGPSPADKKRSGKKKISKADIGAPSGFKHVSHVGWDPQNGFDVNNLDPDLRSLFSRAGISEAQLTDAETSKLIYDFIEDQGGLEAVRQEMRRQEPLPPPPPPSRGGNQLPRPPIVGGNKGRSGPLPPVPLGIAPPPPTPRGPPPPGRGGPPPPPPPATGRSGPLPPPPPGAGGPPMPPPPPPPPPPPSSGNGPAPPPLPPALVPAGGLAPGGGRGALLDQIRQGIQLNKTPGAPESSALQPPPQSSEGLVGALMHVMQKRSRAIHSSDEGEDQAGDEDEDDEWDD

Molecular target: PCNA (human (endogenous in HeLa)) (UniProt P12004)
Assay: proximity ligation; Duolink PLA on fixed cells with antibodies against PCNA and N-WASp or WASp

Substance	binding
N-WASp (from UniProt O00401 1-505)	binds
Wiskott-Aldrich syndrome protein (WASp) (from UniProt P42768 1-502)	binds
